Experimental data: patent publication US20200199647A1, “ASSAY FOR SCREENING MODULATORS OF HOLOPHOSPHATASE ACTIVITY” (UNITED KINGDOM RESEARCH AND INNOVATION, priority 2017, published 2020)

Tested on: P-eIF2α and PP1c
Assay: Visualisation of protein precipitates
Design: species or system human
[1] = 2 mM compound added to 1 μM P-eIF2α or PP1c

Row | SMILES | precipitation of proteins [1] | precipitation of proteins (Salubrinal 30 μM up to 2 mM added to 1 μM P-eIF2α or PP1c)
1 | N=C(N)N/N=C/c1c(Cl)cccc1Cl [Guanabenz] | unlike Guanabenz, Sephin1 and Raphin1 | 
2 | O=C(/C=C/c1ccccc1)NC(NC(=S)Nc1cccc2cccnc12)C(Cl)(Cl)Cl (stereo not drawn) [Salubrinal] |  | induced the precipitation of proteins
3 | NC(N)=N/N=C/c1cccc(Cl)c1Cl [Raphin1] | unlike Guanabenz, Sephin1 and Raphin1 | 
